PubChem BioAssay AID602196 – INSERM | 2012
Purpose: 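Knock-downs that protect lung cancer cells from cisplatin or sensitise them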. Cells: human A549 lung cancer cells. Knock-down reagent: siRNA pair against human genes. Duration: 48 h transfection before cisplatin; time from cisplatin to read-out not stated. Conditions: cisplatin at a dose killing half of control-siRNA cells; exact dose and duration not given. Measurement: 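Cisplatin cell death as a shift from the 50% death seen with control siRNA; siRNAs toxic or growth-blocking alone scored 0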. Scale: two-siRNA summed score (-2 to +2): higher = both siRNAs protect from cisplatin killing; -2 means both sensitise; mean protection from cisplatin (shift in death) and protection from cisplatin (shift in death), siRNA C and protection from cisplatin (shift in death), siRNA D: higher = protection from cisplatin killing. Rule for the call: 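siRNAs harmful alone (LDH or WST-1) get 0; others get +1 for less and -1 for more cisplatin killing; genes are active when the two siRNAs give the same sign, summing to ±2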. Meaning of the calls: active = both siRNAs shift cisplatin killing the same way; inactive = no consistent shift, or siRNA harmful alone.
The whole screen tested about 23,000 reagents; this is a random part of them. Over the whole deposit, 455 (2%) were called active. 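Active includes both protection and sensitisation; some change values fall well beyond the stated -50 to +50 range.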 Unmarked entries are inactive. Not stated in the record: the amount of reagent.

target gene | two-siRNA summed score (-2 to +2) | mean protection from cisplatin (shift in death) (%) | protection from cisplatin (shift in death), siRNA C (%) | protection from cisplatin (shift in death), siRNA D (%)
VPS52 | 1 | 7.1 | -8.5 | 22.7
LOC442261 | 1 | 10.3 | 11.4 | 9.1
LINC00938 | 1 | 7 | 22.3 | -8.2
POLR3F | 0 | 11.1 | 10.9 | 11.4
PLA1A | -1 | -23.5 | -35.6 | -11.4
SLIRP | 0 | 2.4 | -5.1 | 9.9
LOC127406 | 1 | 15.7 | 21.3 | 10
MYG1 | 0 | 5.1 | 10.1 | 0
SYT9 | 1 | 9.3 | 4.8 | 13.9
BPESC1 | 0 | -4.9 | 10.5 | -20.3
LOC392872 | 0 | 6 | 11.2 | 0.8
LOC442474 | 0 | 4.6 | 1.4 | 7.9
LOC286423 | 0 | 20.5 | 11.3 | 29.8
TFAP4 | 1 | 8.8 | 17 | 0.5
OR51A2 | 0 | 7.2 | 12.4 | 2
FLJ44385 (retired record) | 0 | 6 | 3.4 | 8.6
SOX12 | 0 | -1.3 | -4.3 | 1.7
SLC25A48-AS1 | 0 | -3.6 | 5.3 | -12.5
MED15 | 0 | -19.7 | -17.9 | -21.6
MROH9 | 0 | 4.8 | 7.6 | 2
PHAF1 | 0 | 6.2 | 17.7 | -5.2
RAB37 | 0 | -6.4 | -3.1 | -9.7
LOC440265 | 0 | 0.3 | 2 | -1.4
EXOC5 | 0 | 6.9 | 7 | 6.7
IL13 | 0 | -16.8 | -17.9 | -15.7
S100A7A | 2 (active) | 11.2 | 12.3 | 10.1
CKMT1B | 0 | 3.8 | 12.2 | -4.6
LOC388420 | 0 | 9.3 | 16.1 | 2.6
HOXA9 | 0 | 7.8 | 5.3 | 10.2
CCT3 | -1 | 4.2 | -21.5 | 29.9
GDI1 | 0 | 3 | -3.2 | 9.1
SERPINB4 | 0 | 0.3 | -11.5 | 12.1
CLN5 | 1 | 9 | 21 | -3
LOC388735 | 0 | 5 | 12.8 | -2.8
DPEP2 | 1 | 20.9 | 15.9 | 25.9

Entries above whose gene name begins with S or s (6):
target gene | two-siRNA summed score (-2 to +2) | mean protection from cisplatin (shift in death) (%) | protection from cisplatin (shift in death), siRNA C (%) | protection from cisplatin (shift in death), siRNA D (%)
SLIRP | 0 | 2.4 | -5.1 | 9.9
SYT9 | 1 | 9.3 | 4.8 | 13.9
SOX12 | 0 | -1.3 | -4.3 | 1.7
SLC25A48-AS1 | 0 | -3.6 | 5.3 | -12.5
S100A7A | 2 (active) | 11.2 | 12.3 | 10.1
SERPINB4 | 0 | 0.3 | -11.5 | 12.1

The results go on.
target gene | two-siRNA summed score (-2 to +2) | mean protection from cisplatin (shift in death) (%) | protection from cisplatin (shift in death), siRNA C (%) | protection from cisplatin (shift in death), siRNA D (%)
MLN | 0 | -9.5 | -13.8 | -5.3
LOC388807 | 0 | 4.8 | 6.8 | 2.7
LOC442578 | 1 | 17.9 | 8.8 | 27.1
PPIC | 0 | 8 | 6.2 | 9.8
LOC150371 | 0 | 10.7 | 6.7 | 14.7
BSG | -1 | -10.7 | -16.5 | -4.8
SERPINA1 | 0 | -2 | 3.6 | -7.5
FLJ46347 (retired record) | 0 | 1.4 | 10.2 | -7.4
RCN2 | 1 | 10.5 | 16.8 | 4.1
AXL | 2 (active) | 20.6 | 29.2 | 12
SKP2 | 0 | 2.7 | 12.9 | -7.5
ZNF329 | 0 | 10.4 | 8.8 | 12
FOXN3-AS1 | 0 | -1.8 | 0.6 | -4.2
ZNF663P | 1 | 10.8 | 7.6 | 14.1
LOC440441 | 1 | 7.8 | 2.4 | 13.2
CLECL1 | 0 | 1.8 | 1.9 | 1.8
TUBB4A | 0 | 9.3 | 15.7 | 2.9
AGFG1 | 1 | 16.4 | 2.1 | 30.7
ILK | 1 | 4.1 | 14.5 | -6.3
ZW10 | 0 | -4.6 | -10.7 | 1.5
FRA10AC1 | 0 | 4.2 | 10.4 | -2
AVEN | 1 | 8.5 | 1 | 16.1
